PubChem BioAssay AID602196, INSERM | 2012

Aim: 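Genes whose knock-down alters cisplatin killing of lung cancer cells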
System: human A549 lung cancer cells
Reagents: siRNA pair against human genes
Time to read-out: 48 h transfection before cisplatin; time from cisplatin to read-out not stated
Treatment: cisplatin at a dose killing half of control-siRNA cells; exact dose and duration not given
Measured: 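Cisplatin cell death as a shift from the 50% death seen with control siRNA; siRNAs toxic or growth-blocking alone scored 0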
Scale: two-siRNA summed score (-2 to +2): higher = both siRNAs protect from cisplatin killing; -2 means both sensitise
Call rule: 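Each siRNA scores 0 if harmful alone by LDH or WST-1, otherwise +1 if it reduces and -1 if it increases cisplatin killing; a gene is active when both siRNAs agree (sum +2 or -2)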
Calls: active = both siRNAs shift cisplatin killing the same way; inactive = no consistent shift, or siRNA harmful alone
Here is one part, drawn at random, of about 23,000 reagents tested. 455 of them (2%) count as active. 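Active includes both protection and sensitisation; some change values fall well beyond the stated -50 to +50 range.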 The numbers tell different reagents against one gene apart. Further read-outs or replicates are left out here. The record does not give: the amount of reagent.

two-siRNA summed score (-2 to +2), by gene symbol and reagent
SLC25A17: #1 0 inactive
MT1B (metallothionein 1B): #1 0 inactive
PDE4DIPP3 (PDE4DIP pseudogene 3): #1 0 inactive
LOC402193: #1 0 inactive
IL33 (interleukin 33): #1 0 inactive
GPATCH3 (G-patch domain containing 3): #1 -1 inactive
OR2M2 (olfactory receptor family 2 subfamily M member 2): #1 0 inactive
DISP1 (dispatched RND transporter family member 1): #1 0 inactive
GTF2H5 (general transcription factor IIH subunit 5): #1 0 inactive
ANAPC10 (anaphase promoting complex subunit 10): #1 -1 inactive
PRKD2 (protein kinase D2): #1 -1 inactive
ARMCX5 (armadillo repeat containing X-linked 5): #1 0 inactive
RUNDC1 (RUN domain containing 1): #1 0 inactive
FAAH (fatty acid amide hydrolase): #1 0 inactive
GGTLC1 (gamma-glutamyltransferase light chain 1): #1 0 inactive
SLC25A47: #1 0 inactive
ZBTB7A (zinc finger and BTB domain containing 7A): #1 0 inactive
SEC11B: #1 0 inactive
ZNF613 (zinc finger protein 613): #1 0 inactive
CCDC7 (coiled-coil domain containing 7): #1 0 inactive; #2 0 inactive
SMAD1 (SMAD family member 1): #1 0 inactive
AP1S2 (adaptor related protein complex 1 subunit sigma 2): #1 0 inactive
TRIOBP (TRIO and F-actin binding protein): #1 0 inactive
LOC389768: #1 0 inactive
KMT5A (lysine methyltransferase 5A): #1 1 inactive
MMADHC (metabolism of cobalamin associated D): #1 0 inactive
MORN5 (MORN repeat containing 5): #1 0 inactive
ATP4A (ATPase H+/K+ transporting subunit alpha): #1 0 inactive
CD163L1 (CD163 molecule like 1): #1 0 inactive
KIAA1920: #1 0 inactive
SZT2 (SZT2 subunit of KICSTOR complex): #1 0 inactive; #2 0 inactive
EGLN1 (egl-9 family hypoxia inducible factor 1): #1 0 inactive
KLK15 (kallikrein related peptidase 15): #1 0 inactive
LOC389703: #1 0 inactive
SNAPC1 (small nuclear RNA activating complex polypeptide 1): #1 1 inactive
CAPN7 (calpain 7): #1 -1 inactive
COPZ2 (coat protein complex I subunit zeta 2): #1 0 inactive
ANXA6 (annexin A6): #1 0 inactive
GGT2P (gamma-glutamyltransferase 2, pseudogene): #1 1 inactive
LOC388564: #1 0 inactive
PIP4P2 (phosphatidylinositol-4,5-bisphosphate 4-phosphatase 2): #1 -1 inactive
AQP4 (aquaporin 4): #1 0 inactive
NYAP1: #1 -1 inactive
MYH6 (myosin heavy chain 6): #1 0 inactive
FGF7P6 (fibroblast growth factor 7 pseudogene 6): #1 0 inactive
LOC390916: #1 1 inactive
LOC441400: #1 0 inactive
RBPJ: #1 0 inactive
INSL3 (insulin like 3): #1 1 inactive
SPHAR (retired record): #1 0 inactive
CLMN (calmin): #1 0 inactive
CLCN4 (Cl-/H+ antiporter 4): #1 -1 inactive
TRPS1 (transcriptional repressor GATA binding 1): #1 0 inactive
CNPY2 (canopy FGF signaling regulator 2): #1 0 inactive
CASC3 (CASC3 exon junction complex subunit): #1 1 inactive
UFC1 (ubiquitin-fold modifier conjugating enzyme 1): #1 0 inactive
DYSF (dysferlin): #1 0 inactive
ATG2A (autophagy related 2A): #1 1 inactive
LAMB3 (laminin subunit beta 3): #1 0 inactive
LOC149704: #1 0 inactive
NSMCE2 (NSE2 SUMO ligase component of SMC5/6 complex): #1 0 inactive
SYNGR4 (synaptogyrin 4): #1 0 inactive
TSPAN15 (tetraspanin 15): #1 0 inactive
TLL1 (tolloid like 1): #1 0 inactive
NDOR1 (NADPH dependent diflavin oxidoreductase 1): #1 0 inactive
ZMYM4 (zinc finger MYM-type containing 4): #1 -1 inactive
MAGED1 (MAGE family member D1): #1 0 inactive
C9orf50 (chromosome 9 open reading frame 50): #1 0 inactive
ST7 (suppression of tumorigenicity 7): #1 0 inactive
CEACAM1 (CEA cell adhesion molecule 1): #1 0 inactive
ARG1 (arginase 1): #1 0 inactive

No new results follow: an excerpt of the list.
two-siRNA summed score (-2 to +2), by gene symbol and reagent
SLC25A47: #1 0 inactive
ZBTB7A (zinc finger and BTB domain containing 7A): #1 0 inactive
SEC11B: #1 0 inactive
ZNF613 (zinc finger protein 613): #1 0 inactive
CCDC7 (coiled-coil domain containing 7): #1 0 inactive; #2 0 inactive
SMAD1 (SMAD family member 1): #1 0 inactive
